PubChem BioAssay AID1259424, University of Nebraska Medical Center | 2018
Assay: 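Rank knockdowns across the genome by resemblance to the KSR1 depletion profile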 (primary screen). Cell system: human HCT116 colon cancer cells. Reagent: siRNA pool against human genes, 50 nM. Measured: 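Log2 levels of six mRNAs (branched-DNA multiplex), adjusted by two reference genes and the non-targeting median, then scored against the average KSR1 knockdown pattern as Pearson r and euclidean distance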. Scale: mean correlation with KSR1 profile and KSR1 correlation: higher = expression change more like KSR1 knockdown; mean distance from KSR1 profile: higher = expression change less like KSR1 knockdown.
This is a random part of about 14,000 reagents tested. 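Higher correlation or smaller distance means closer resemblance to KSR1 loss; control wells, including KSR1 knockdowns, recur on many plates.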 Not all columns of the deposit are shown. Not given: the time to read-out.

no.	gene	mean correlation with KSR1 profile	mean distance from KSR1 profile	KSR1 correlation, replicate 1	KSR1 correlation, replicate 2
1	NR3C2	0.00713	1.65	0.114	0.116
2	MYL6	-0.562	3.36	-0.795	-0.405
3	PLEKHG6	-0.257	2.45	-0.122	-0.359
4	CDS1	0.0664	1.77	0.301	-0.0893
5	PDCL3	-0.558	3.37	-0.708	-0.625
6	RHBDD3	-0.521	3.54	-0.316	-0.565
7	KAT2B	-0.342	2.21	-0.239	-0.423
8	RNASE7	0.868	1.1	0.788	0.836
9	CCDC69	-0.429	2.83	-0.207	-0.62
10	NPHP4	0.302	1.24	0.327	-0.0305
11	PBRM1	0.192	2.21	0.167	0.119
12	SLC25A38	-0.311	2.7	-0.185	-0.432
13	SYT11	0.222	3.33	0.182	0.0723
14	COX8A	-0.0117	1.73	0.217	-0.0756
15	NCAPD3	-0.715	1.99	-0.688	-0.571
16	PCDH12	0.501	1.28	0.119	0.56
17	CHRNA3	0.355	1.56	0.456	0.218
18	EPHB3	0.356	4.21	-0.0846	0.0238
19	TMED7	-0.172	2.1	-0.0996	-0.19
20	DRG1	-0.0796	1.85	-0.0466	-0.355
21	RAD54L2	0.0828	1.12	0.218	-0.134
22	ATP6V1B2	-0.435	5.26	-0.474	-0.47
23	NIPSNAP1	-0.137	2.11	0.00796	-0.266
24	C6orf15	-0.501	2.13	-0.76	-0.676
25	ZC3H7A	0.0251	1.5	-0.251	-0.436
26	EFHC2	0.0839	3.01	-0.436	0.132
27	ZKSCAN8	-0.384	2.68	-0.379	-0.0584
28	URGCP	-0.261	1.62	-0.389	-0.0918
29	HSD17B10	-0.343	2.83	-0.463	-0.472
30	RIF1	-0.76	3.45	-0.678	-0.78
31	SPX	0.601	1.34	0.623	0.645
32	GABRQ	-0.0767	1.72	0.0789	-0.0314
33	LIMK1	0.039	1.92	0.17	0.181
34	TRPC4AP	-0.0294	1.9	0.0929	0.00324
35	S100B	0.931	0.727	0.902	0.898
36	NYX	-0.762	2.67	-0.821	-0.832
37	PPP4R1	0.484	1.14	0.626	0.293
38	RAD51	-0.0272	5.05	-0.223	-0.0475
39	RGPD5	0.465	1.94	0.371	0.47
40	MFAP5	-0.23	2.43	-0.213	-0.269
41	AQP5	-0.53	2.35	-0.626	-0.537
42	ZNF146	0.418	1.23	0.877	0.335
43	THYN1	0.588	1.95	0.12	0.218
44	TMEM59	-0.386	1.49	-0.359	-0.243
45	UBE2R2	0.088	1.6	0.0963	-0.127
46	IL2RA	-0.0359	1.19	0.212	-0.186
47	SLC7A14	-0.791	1.59	-0.752	-0.5
48	DEFA3	0.0674	1.27	0.29	-0.054
49	CASKIN2	-0.175	1.67	-0.0639	-0.379
50	GAPVD1	-0.454	3.48	-0.138	-0.643

Limited to “KSR1 correlation, replicate 2”, for 2 of the entries above:
PCDH12	0.56
CHRNA3	0.218
